Assay results: PubChem BioAssay AID1508600 (Functional Genomics Laboratory (NCATS/FGL), 2020)
Out of some 53,000 sequences screened, about 3,700 (7%) were called active.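 Rule for the calls: active = gene knockdowns whose robust z-score for IL-1 alpha signal is at least 2 or at most -2, so actives lie on both sides; inactive = the rest.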 This is one part of the list.

Assay: Components of the Cytosolic LPS Sensing Pathway: Gene Identification via Genome-wide siRNA Screen;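 note: robust z of the log signal after scaling to non-targeting control siRNA wells of the plate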
Settings: RAW264.7 macrophages, IL-1a HTRF, actives lie on both sides, screened at 100 nM (by protocol), cells primed 5 h with Pam3CSK4 first
Procedure, shortened: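 Supernatant IL-1a by HTRF from RAW264.7 cells primed with Pam3CSK4 (5 hours) and transfected with LipidA (24 hour) after 48h siRNA knockdown at 100 nM; cell viability checked with CellTiter-Glo.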

Question: With GCGACUGCGUUCGUUAUUUTT against Matn1 as the sequence, how does the z-score read?
Answer: Its z-score is inactive: 1.38.

Question: With CCCAGCACAUGCUAUCUCUTT against Zbtb21 as the sequence, how does the z-score read?
Answer: Its z-score is active: -2.6.

Question: Which z-score does the source give for CCAGAGUCGCUACAAAAUUTT against Vmn1r93 here?
Answer: Its z-score is inactive: -0.346.

Question: Which z-score does the source give for GGAAAAGUCCUGUAAAAUUTT against Dmrta1 here?
Answer: The z-score was inactive: -0.631.

Question: Which z-score does the source give for GGAGACCUGGCAAAUGUAATT against Dctn5 here?
Answer: The z-score was inactive: 0.884.

Question: Which z-score does the source give for GGUAAAUAGUCACCUACGGTT against Cyb5r3 here?
Answer: The z-score was inactive: 1.4.

Question: Which z-score does the source give for CUUCAAUACACGAGUUGUCTT against Olfr1126 here?
Answer: Its z-score is inactive: 0.123.

Question: With GGAGAUCCUGGAAGACUUCTT against Ocstamp as the sequence, how does the z-score read?
Answer: Its z-score is active: 2.18.

Question: With GGAGAGGAGACACAUCAGUTT against Gnpat as the sequence, how does the z-score read?
Answer: Its z-score is inactive: -0.067.

Question: Which z-score does the source give for GCCGUUAGGAAAAAACGAUTT against Tbcb here?
Answer: Its z-score is inactive: 1.38.

Question: With GGUCUGUUUCUGAACUCCUTT against Hace1 as the sequence, how does the z-score read?
Answer: Its z-score is inactive: -0.14.

Question: Which z-score does the source give for GCACCUGUUUGAGAUUACGTT against Arhgap22 here?
Answer: The z-score was inactive: 1.02.

Question: Which z-score does the source give for GCCUGUGAACCUGUAUUGUTT against Unc5c here?
Answer: The z-score was inactive: -0.12.

Question: For CCAUGCUUAGCUCAAUAGUTT against Pla2g3, which z-score is on record?
Answer: Its z-score is inactive: 0.442.

Question: Which z-score does the source give for CCCUGUGUACAGAGAAAGGTT against Pabpn1l here?
Answer: The z-score was inactive: -0.228.

Question: With GGACUUAUUAUGUGAGUGUTT against Ncbp2 as the sequence, how does the z-score read?
Answer: Its z-score is inactive: 0.555.

Question: Which z-score does the source give for GGUUUGUUUAGCUUGAAACTT against Ccr1 here?
Answer: Its z-score is inactive: -0.227.

Question: For GGAAGUUUGUGUCUGAUGUTT against Lpar6, which z-score is on record?
Answer: Its z-score is inactive: -0.512.

Question: Which z-score does the source give for GGAUGGUUAUCAGGAAAAUTT against Scel here?
Answer: Its z-score is inactive: 0.267.

Question: For CGACCCUGACAGAAUACUCTT against Saraf, which z-score is on record?
Answer: The z-score was inactive: -1.18.

Question: With GGAGUCCGCUCAGAAUUUGTT against Lhpp as the sequence, how does the z-score read?
Answer: The z-score was inactive: -0.194.

Question: With GGCAGAAAUGAAAACACUUTT against Ier5l as the sequence, how does the z-score read?
Answer: Its z-score is inactive: -0.572.

Question: For GGCUUAUGUCCCAAAGCUATT against Nexn, which z-score is on record?
Answer: The z-score was inactive: -0.633.

Question: Which z-score does the source give for CGUCACCUACCAAGGAGAGTT against Enpp7 here?
Answer: The z-score was inactive: -1.85.

Question: With GGGCCAAGAAAACCUACACTT against Cyp11b2 as the sequence, how does the z-score read?
Answer: The z-score was active: 2.63.

Question: Which z-score does the source give for GGACAGCUCUCAGAAUUCUTT against Ctse here?
Answer: Its z-score is inactive: -1.13.

Question: For GGAACCCAAGUAGCCUUGUTT against Serf2, which z-score is on record?
Answer: The z-score was inactive: 0.117.

Question: With GGGCUCUUAUAUAAUAGUUTT against Slc36a2 as the sequence, how does the z-score read?
Answer: Its z-score is inactive: 0.0105.

Question: Which z-score does the source give for CCAACAUCCUUAAGCGGCUTT against Lonp1 here?
Answer: Its z-score is inactive: -0.161.

Question: For CGAGCUAGAUGACUUACUATT against Pkp4, which z-score is on record?
Answer: Its z-score is inactive: 0.436.
